The values below come from PMC2980477.

Amino acid sequences for entries named in this document (tags omitted). A change or cut given only in a name is not applied to a line headed by its entry.
UniProt P43403: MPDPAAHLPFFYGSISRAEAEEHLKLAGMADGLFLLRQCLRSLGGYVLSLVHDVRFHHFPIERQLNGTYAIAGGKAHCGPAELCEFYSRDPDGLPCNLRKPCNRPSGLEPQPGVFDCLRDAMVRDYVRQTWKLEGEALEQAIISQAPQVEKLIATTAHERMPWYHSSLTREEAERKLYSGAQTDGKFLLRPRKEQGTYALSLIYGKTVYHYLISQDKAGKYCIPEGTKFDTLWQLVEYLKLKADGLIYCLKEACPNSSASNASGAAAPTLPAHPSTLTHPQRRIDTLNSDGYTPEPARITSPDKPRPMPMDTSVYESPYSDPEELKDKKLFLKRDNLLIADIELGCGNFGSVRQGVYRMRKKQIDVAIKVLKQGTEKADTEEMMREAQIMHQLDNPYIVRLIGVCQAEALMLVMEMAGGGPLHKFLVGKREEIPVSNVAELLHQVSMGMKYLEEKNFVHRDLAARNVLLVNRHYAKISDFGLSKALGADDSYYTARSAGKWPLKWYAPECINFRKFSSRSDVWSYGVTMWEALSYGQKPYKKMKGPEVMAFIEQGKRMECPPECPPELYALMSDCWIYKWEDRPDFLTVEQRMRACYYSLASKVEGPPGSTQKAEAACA
UniProt P06239: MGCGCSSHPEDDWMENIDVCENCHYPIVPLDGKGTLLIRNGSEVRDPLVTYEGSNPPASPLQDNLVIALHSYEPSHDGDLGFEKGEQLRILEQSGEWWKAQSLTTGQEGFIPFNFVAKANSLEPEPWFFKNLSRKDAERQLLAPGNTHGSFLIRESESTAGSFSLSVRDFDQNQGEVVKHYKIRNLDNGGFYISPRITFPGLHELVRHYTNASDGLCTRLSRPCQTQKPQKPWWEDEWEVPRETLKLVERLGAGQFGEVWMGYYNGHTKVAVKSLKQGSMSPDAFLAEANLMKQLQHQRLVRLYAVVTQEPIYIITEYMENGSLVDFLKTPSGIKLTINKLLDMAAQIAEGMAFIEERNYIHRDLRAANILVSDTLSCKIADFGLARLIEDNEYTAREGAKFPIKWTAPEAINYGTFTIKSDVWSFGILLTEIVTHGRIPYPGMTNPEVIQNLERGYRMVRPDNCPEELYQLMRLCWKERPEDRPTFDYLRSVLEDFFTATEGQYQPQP

No constants are given. Whether binding was seen depends on the method and setting. Binding seen in cells or lysates may run through a third protein. Where a sequence is shown, tags or fusion partners need not be part of it.

One experiment has as its target T1, HA-RhoH (UniProt Q15669).
T1 sequence: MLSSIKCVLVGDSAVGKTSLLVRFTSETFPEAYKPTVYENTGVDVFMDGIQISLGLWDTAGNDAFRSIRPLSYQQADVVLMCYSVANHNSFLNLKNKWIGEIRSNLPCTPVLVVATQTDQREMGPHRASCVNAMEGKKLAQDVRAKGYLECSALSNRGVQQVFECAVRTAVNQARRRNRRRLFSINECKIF
As to the kind of experiment: co-IP; total lysates of HEK293 cells co-transfected with HA-RhoH, kinase-dead Lck (KD-Lck) and ZAP-70; IP with anti-ZAP-70 or anti-HA; immunoblot. (In general: In western blotting, separated proteins are transferred to a membrane and probed.)

Experiment [1] concerns the target kinase-dead ZAP-70 (KA-ZAP-70) (UniProt P43403). Description: co-IP; total lysates of HEK293 cells transfected with combinations of HA-RhoH, CA-Lck and ZAP-70 or KA-ZAP-70; IP with anti-HA or anti-ZAP-70; immunoblot.

Regarding “kinase-dead Lck (KD-Lck) (from UniProt P06239)”, the binding result with HA-RhoH was “no binding”.

B1: HA-RhoH (protein, UniProt Q15669 1-191)
chain: MLSSIKCVLVGDSAVGKTSLLVRFTSETFPEAYKPTVYENTGVDVFMDGIQISLGLWDTAGNDAFRSIRPLSYQQADVVLMCYSVANHNSFLNLKNKWIGEIRSNLPCTPVLVVATQTDQREMGPHRASCVNAMEGKKLAQDVRAKGYLECSALSNRGVQQVFECAVRTAVNQARRRNRRRLFSINECKIF
For B1, in experiment [1], the binding entry is given as “no binding”.
